Library screening results

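Whole-cell assay for inhibitors of Mycobacterium tuberculosis growth, labelled Cornell in the record; the read-out is not stated. The concentration is filed as 10 mM, unlikely as a test dose, so the dose is not known. The record gives no direction; compounds strong in two other growth screens of this library score well above the rest, so higher reads as stronger inhibition. About 53,000 compounds were tested under these conditions; 1.7% (about 900) showed 50% or more at least once.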

Each number is a percent effect as filed. The controls that fix the scale are not given in the record; negative values are as filed. This is an unselected part of the compounds tested.

compound,percent effect
CC(C)(CNC(=O)CSc1nnnn1C1CC1)c1ccccc1F,11.62
Cc1nnc(CN2CCC(Oc3ccc(C)c(C)c3)CC2)o1,24.41
COc1cccc(CC(C)NC(=O)NCc2ccn(C)c2)c1 (configuration not stated),85.29
COc1cccc(-c2nc(C)c(C(=O)N[C@H](CO)CC(C)C)s2)c1,7.637
NC(=O)CCN(CC(=O)NCc1ccccn1)c1ccc(F)cc1,19.58
[H][C@]12CCCN(S(=O)(=O)c3ccc(OC)c(F)c3)[C@@]1([H])CN(C(=O)C1CC1)C2,-26.45
O=C(O)C(F)(F)F.O=C(O)C(F)(F)F.O=C(O)C(F)(F)F.[H][C@@]12CN(Cc3cccnc3)C[C@]1([H])[C@H](OC)CCN2c1ncc(F)cn1,14.17
c1nc2c(c(N3CCOCC3)n1)CCNCC2,3.423
COc1nc2c(cc1C(=O)NC(C)Cc1cnccn1)CCC2 (configuration not stated),1.539
[H][C@@]12CC[C@H](Oc3ccccc3Cl)[C@]1([H])CN(C(=O)Cn1ccnc1)C2,-5.835
CCc1cc(N(C)Cc2c(C)nn(C)c2C)n2nccc2n1,-0.1364
CN1CCN(C(=O)c2cc[nH]c(=O)c2)Cc2ccccc21,-3.412
CCc1c(C(=O)O)nnn1-c1cc(C)cc(C)c1,22.91
[H][C@@]12CCN(C(=O)CCC(C)C)C[C@]1(c1nc(C)no1)CCO2,-0.5639
COC(=O)CCCNC(=O)N1CCc2c([nH]c3ccc(Cl)cc23)C1,8.847
Cc1cccc(OC2CN(C(=O)c3cnn(C)c3)C2)c1,-13.21
Cc1noc(C)c1CN(C)c1nc(C2CCCC2)nc2c1cnn2C,-3.754
Cc1nc2c(N3CCN(CCO)CC3)nc(N)nc2n1C,32.09
[H][C@@]12COC[C@]1(COCC1CC1)CN(S(=O)(=O)c1ccccc1)C2,-9.997
COCCn1cc(NC(=O)NC(C)c2ccc(Cl)s2)cn1 (configuration not stated),9.764
Cc1ccc(C2CSCCN2C(=O)c2ccc(C(N)=O)cc2)o1 (configuration not stated),15.84
CCCc1cnc(C)nc1NC(C)Cc1cnccn1 (configuration not stated),-4.085
O=C(c1ccc(S(=O)(=O)N2CCSCC2)cc1)N1CCCCCC1,0.3568
CC(CCN1CCOCC1)NC(=O)c1cccc(C(F)(F)F)c1F (configuration not stated),37.7
CCC(=O)N1CCCC1C(=O)N1CCC(Cc2ccc(F)cc2)CC1 (configuration not stated),13.83
Cc1nc(CN(C)C2CCN(Cc3ccc4ccccc4n3)C2)no1 (configuration not stated),29.72
CC(C)c1cccc(NC(=O)N2CC(N(C)C)C2)c1,10.73
O=C1CN(c2ccc(CNc3cncc(-n4cccn4)n3)cc2)CCN1,12.24
[H][C@@]12C[C@@H](C)O[C@]1([H])CN(S(=O)(=O)c1ccc(F)cc1)C2,20.65
CC(=O)N(Cc1ncc(C)o1)C1CCN(Cc2cnc(C)s2)C1 (configuration not stated),-10.25
CCn1cc(CN2CCC(C3CCN(C)CC3)CC2)cc1C#N,-23.8
CNS(=O)(=O)c1ccc(C(=O)NC2CCOc3ccccc32)o1 (configuration not stated),7.684
COCC1c2nnn(C)c2CCN1C(=O)COc1ccccc1OC (configuration not stated),-14.8
O=C(O)C(F)(F)F.[H][C@@]12CCCO[C@]1([H])[C@H](N1CCCC1)CN(C(=O)c1ccccc1)C2,-7.041
CCN(C)c1ncnc2c1CCN(Cc1csc(C)n1)CC2.O=C(O)C(F)(F)F.O=C(O)C(F)(F)F,13.68
C[C@@H]1CN(Cc2cn(C)nc2-c2ccccc2F)C[C@H](C)O1,-9.006
Cn1cc(C(=O)N2CCC(c3cc(CCO)n(C)n3)C2)cn1 (configuration not stated),12.33
Cc1nc(-c2ccccc2F)sc1C(=O)N1CCN(C)CC1,7.762
Cc1ccc(S(=O)(=O)NC(=O)CCc2cscn2)cc1Cl,-18.36
CCN(CC)Cc1cn2c(n1)CN(C(=O)Cc1ccsc1)CC2.O=C(O)C(F)(F)F,5.847
O=C(COc1ccccc1F)NCC(O)(c1ccccc1)C1CC1 (configuration not stated),32.92
Cc1cc(C(=O)N2C[C@@H](CN3CCCCC3)[C@@H](CO)C2)ccc1O,-21.29
COc1ccc(CN2CCc3nc4ccsc4c(=O)n3CC2)c(C)c1C,-4.584
Cc1nnc(CN2CCC(Oc3ccc(F)cc3)CC2)o1,5.495
CC(=O)Nc1ccc2nc(-c3nccn3CC(C)(C)CO)ccc2c1,41.44
CN(Cc1cc(-c2ccccc2)no1)C1CCCN(c2cccnn2)C1 (configuration not stated),-7.873
O=C(c1ccnnc1)N1CCc2onc(CN3CCCC3)c2C1,-43.62
COc1ccc(C(=O)NC(CC(=O)O)c2cccs2)c(OC)c1 (configuration not stated),-18.87
CN1CC[C@]2(CN(S(C)(=O)=O)C[C@H]2c2ccccc2)C1=O,-23.26
CCN(CCC(F)(F)F)S(=O)(=O)c1cccc(F)c1C#N,12.77
COCCN1CCC(CNC(=O)Nc2ccc(-c3ccccc3)cc2)C1 (configuration not stated),26.97
Cl.O=C(NCC(F)F)c1cnc(C2CCCN2)cn1 (configuration not stated),39.72
CN1CCN(Cc2cn3c(n2)CN(Cc2cccc(F)c2)CC3)CC1.O=C(O)C(F)(F)F.O=C(O)C(F)(F)F.O=C(O)C(F)(F)F,2.205
Cc1cc(F)c2c(c1)CCCN2S(=O)(=O)c1ncn(C)c1Cl,4.187
COCCC(=O)NCCCOC1CCCc2ccccc21 (configuration not stated),1.097
O=C(O)C(F)(F)F.[H][C@]12CCC[C@@]1(COCC(=O)N(C)C)CNC2,25
CC(C)(C)c1nnc(CN2CCOC(Cn3cccn3)C2)o1 (configuration not stated),19.05
COC(CNC(=O)C1CCCC1)c1ccc(C)s1 (configuration not stated),8.948
CC(C)S(=O)(=O)CCN1CCc2c(ncn2C2CC2)C1,24.96
CCCn1nc2c(cc1=O)CN(Cc1nc(C)c3ccccc3n1)CC2,8.963

Some entries from above, unchanged:

- Cc1nnc(CN2CCC(Oc3ccc(C)c(C)c3)CC2)o1 | 24.41%
- Cc1cccc(OC2CN(C(=O)c3cnn(C)c3)C2)c1 | -13.21%
- CC(C)(C)c1nnc(CN2CCOC(Cn3cccn3)C2)o1 (configuration not stated) | 19.05%
- [H][C@@]12CC[C@H](Oc3ccccc3Cl)[C@]1([H])CN(C(=O)Cn1ccnc1)C2 | -5.835%
- C[C@@H]1CN(Cc2cn(C)nc2-c2ccccc2F)C[C@H](C)O1 | -9.006%
- Cl.O=C(NCC(F)F)c1cnc(C2CCCN2)cn1 (configuration not stated) | 39.72%

The values are deposited in ChEMBL (CHEMBL3988442, “University of Dundee, Small-Polar-MMV Screening Library” (2021)).